The record followed here is PubChem BioAssay AID2685 (National Center for Advancing Translational Sciences (NCATS), 2010).

The other results are listed elsewhere or left out. Shown are side measurements of this screen, not its main read-out; they come without a call. Most of these compounds were active or inconclusive in the main read-out, so they are no random draw. The note in brackets gives the kind of curve behind each potency; many fits are weak.

The assay in a line: qHTS Assay for Lipid Storage Modulators in Drosophila S3 Cells.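 For cell number change: cells counted by Cell Tracker Red CMTPX staining in the red channel.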 The note with it: BODIPY lipid droplet fluorescence, 18-24 h; for cell number change: measured here: cell count max response, cells fed with added oleic acid. In outline: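 Drosophila S3 cells loaded with oleic acid (400 uM, as added) and compounds at several concentrations; lipid droplets imaged by 488-nm laser-scanning cytometry, 500–530 nm intensity and object ratio to cell channel. Percent activity normalized to 20 uM Triacsin C.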
(In general: qHTS replaces the single test concentration by a dilution series.)

[1] abbreviates: measured here: cell number channel AC50, cells fed with added oleic acid.
The mark [2] stands for this setting: measured here: lipid fluorescence (Fed channel) AC50, cells fed with added oleic acid.

In the case of `O=C(CCCn1c(=O)oc2ccccc21)Nc1ccccc1`, the cell number change was 12%.
Broadly, the AC50 is the concentration giving half of the maximal activity seen. A lower AC50 goes with activity at low concentration. As for `CCCNC(=O)C(Cc1ccc(F)cc1)NC(=O)c1ccc(C#N)cc1` (stereo not given), the cell number change came out at 9.7%. For the same compound, under setting [1], the AC50 is 6.51 µM [falling, single point]. Besides, the AC50 under setting [2] was 2.91 µM [falling, single point].
Regarding `CCCNC(=S)NC1CCCC1`, the cell number change is 24.5%. Further, the AC50 under setting [2] is 1.64 µM [falling, partial curve, poor fit].
As to `O=C(COc1ccc(Cl)cc1Cl)NCCCCc1ccccc1`, the cell number change is -41.6%. Moreover, the AC50 under setting [1] was 20.6 µM [falling, single point]. The AC50 under setting [2] is 29.1 µM [falling, single point].
On to `Cc1ccc(-n2nc3c(=O)n(C(C)C(=O)NCc4ccccc4Cl)nc(C)c3c2C)cc1` (stereo not given), for which the cell number change is -19.1%. In addition, the AC50 under setting [2] was 29.1 µM [falling, single point].
In the case of `COc1ccc(CCNC(=O)c2ccccc2NS(=O)(=O)c2cc(C(=O)O)ccc2OC)cc1`, the cell number change was 1.32%. In addition, the AC50 under setting [1] is 1.16 µM [falling, full curve, poor fit].
Take `COc1cc(CN2CCCCC2)ccc1OCc1ccccc1`: the cell number change was determined as 7.41%. Also, under setting [2], the AC50 is 0.13 µM [falling, full curve, poor fit].
Consider `Cc1ccc(-n2cccn2)c(CN2CCC(CO)(CCc3ccccc3)CC2)c1`, for which the cell number change was 0.176%.
`Oc1ccccc1C1OCC2(CO1)COC(c1ccccc1O)OC2` (stereo not given): the cell number change is -27.2%. The AC50 under setting [1] is 2.06 µM [rising, partial curve, poor fit]. The AC50 under setting [2] is 6.51 µM [rising, partial curve].
Consider `Cc1cccn2c(=O)c(/C=C(\C#N)S(=O)(=O)c3ccc(Cl)cc3)c(N3CCC(C(N)=O)CC3)nc12`, for which the cell number change worked out at 3.23%.
In the case of `CN(C)/C=C(\C#N)S(=O)(=O)c1ccccc1`, the cell number change is -22.9%. Also, the AC50 under setting [2] is 6.31 µM [falling, single point].
Consider `O=C(C1CCN(S(=O)(=O)N2CCC3(CC2)OCCO3)CC1)N1CCc2ccccc2C1`, for which the cell number change was 143%. Further, under setting [1], the AC50 is 6.51 µM [falling, single point]. Moreover, the AC50 under setting [2] was 6.51 µM [falling, single point].
Turning to `CC1c2ccsc2CCN1S(=O)(=O)c1ccccc1` (stereo not given), the AC50 under setting [2] is 1.84 µM [falling, partial curve].
Consider `Cn1nc(C(=O)NCC(=O)Nc2ccc(F)c(F)c2F)c2ccccc2c1=O`, for which the cell number change turned out to be 36.8%. For the same compound, the concentration at half-maximal activity (AC50) under setting [1] is 29.1 µM [rising, single point]. Moreover, the concentration at half-maximal activity (AC50) under setting [2] is 25.9 µM [rising, single point].
On to `O=Cc1ccc(OCc2ccc3c(c2)OCO3)cc1`, for which the cell number change turned out to be 19.9%. Further, the AC50 under setting [2] is 18.4 µM [rising, single point].
As to `Cc1ccc(NC(=O)CN(C)C(=O)c2ccc3[nH]c4c(c3c2)CC(C)CC4)cc1` (stereo not given), the cell number change was found to be 18.5%. Further, the AC50 under setting [2] was 0.092 µM [rising, full curve, poor fit].
On to `Cc1ccc2c(c1)N(CC(=O)N1CCCC1)C(=O)c1cccnc1O2`, for which the cell number change turned out to be 5.61%. Moreover, the AC50 under setting [2] is 10.3 µM [falling, partial curve].
Consider `CCOC(=O)C1=C(COC(=O)c2ccccc2OC)NC(=O)NC1C` (stereo not given), for which the AC50 under setting [2] was 0.0058 µM [rising, full curve, poor fit].
`C[C@@H](C(=O)NCc1ccc(S(C)(=O)=O)cc1)[C@H]1C[C@]1(C)[C@H](NC(=O)OCc1ccccc1)c1ccccc1`: the half-maximal activity concentration (AC50) under setting [2] is 2.91 µM [rising, partial curve].
With `CO/N=C(/C)CCS(=O)(=O)c1ccccc1`, the cell number change is -7.17%.
For the compound `C=CCn1c(SCC(N)=O)nc2nc3c(cc2c1=O)COC(C)(C)C3`, the cell number change was -0.351%. Further, the AC50 under setting [1] was 6.51 µM [rising, single point].
Turning to `COC(=O)/C=c1\sc2ncnn2c1=O`, the cell number change was -46.2%. For the same compound, the AC50 under setting [1] was 0.58 µM [falling, full curve]. Further, the AC50 under setting [2] was 4.61 µM [falling, full curve].
`Cc1ccc2[nH]c(=O)c(COC(=O)c3cccs3)cc2c1`: the AC50 under setting [1] was 2.59 µM [falling, partial curve].
With `COCCCn1c(SCc2nnc(-c3ccc(OC)c(OC)c3)o2)nc2ccccc2c1=O`, the cell number change turned out to be 1.92%. Further, under setting [2], the AC50 was 0.82 µM [rising, full curve, poor fit].
In the case of `CN(CCC#N)C(=O)CSc1nnc(-c2ccco2)n1N`, the cell number change is -22.7%. Besides, the AC50 under setting [2] was 1.46 µM [falling, full curve, poor fit].
As to `CCOC(=O)Cc1cc(=O)n2[nH]cc(-c3cccc(Br)c3)c2n1`, the cell number change was 15.8%.
As for `COc1ccccc1OCCC(=O)OCCN1C(=O)c2ccccc2C1=O`, the cell number change was -5.05%. In addition, the AC50 under setting [1] is 0.00517 µM [falling, full curve, poor fit].
Regarding `Cn1c(SCc2ccccc2Br)nc2ccccc2c1=O`, the cell number change came out at 4.67%. In addition, under setting [2], the concentration at half-maximal activity (AC50) was 3.66 µM [rising, full curve].
Regarding `COc1ccc(NC(=O)c2ccc(-c3ccc(C(C)=O)cc3)o2)cn1`, the cell number change is -14.9%. Further, the AC50 under setting [2] was 29.1 µM [rising, single point].
As to `CCOc1ccc(CCNC(=O)CN2C(=O)NC3(CCCCCC3)C2=O)cc1OCC`, the cell number change is -54.5%. The AC50 under setting [1] is 6.51 µM [falling, partial curve]. Under setting [2], the AC50 was 1.84 µM [falling, full curve, poor fit].
With `CN(C)C(=S)Nc1cccc(-c2n[nH]c(=S)o2)c1`, the cell number change was -49.5%. The AC50 under setting [1] was 29.1 µM [falling, single point].
On to `CC(=O)Nc1nc(-c2cccc3ccccc23)cs1`, for which the cell number change is 22.8%. Also, under setting [2], the AC50 is 0.116 µM [rising, full curve, poor fit].
On to `CCC(C)NC(=O)[C@H](CSCc1ccccc1)N1Cc2ccccc2C1=O` (stereo not given in full), for which the cell number change was found to be 18.7%. Further, under setting [2], the AC50 is 0.13 µM [falling, full curve, poor fit].
On to `CSCCC(NS(=O)(=O)c1cccc(C(F)(F)F)c1)C(=O)N(C)Cc1ccc2c(c1)OCCO2` (stereo not given), for which the cell number change was -34.7%. Besides, the AC50 under setting [2] was 5.8 µM [falling, full curve, poor fit].
Take `Cc1ccccc1CNC(=O)c1ccc2nc(N3CCOCC3)sc2c1`: the cell number change is 12.6%.
As for `c1ccc2nc3c(nc2c1)c1ccccc1n3CCN1CCOCC1`, the AC50 under setting [2] was 0.461 µM [rising, partial curve, poor fit].
For the compound `CN(C(=O)c1ccccn1)C1(C(=O)NC2CCCCC2)CCCCC1`, the cell number change turned out to be 0.992%. Moreover, the AC50 under setting [2] was 0.231 µM [falling, full curve].
On to `CCOc1ccc2nc(SCC(=O)N(CC(C)C)c3c(N)n(Cc4ccccc4)c(=O)[nH]c3=O)[nH]c2c1`, for which the cell number change came out at 25.4%. Moreover, the AC50 under setting [2] is 0.58 µM [rising, full curve, poor fit].
With `Cc1ccc(C)c(OCc2cc(C(=O)N3CCc4sccc4C3)no2)c1`, the cell number change is -36.1%. In addition, the AC50 under setting [2] is 5.8 µM [falling, full curve].
Turning to `CCOC(=O)CCNC(=O)N1CCCC(CNS(=O)(=O)Cc2ccccc2)C1` (stereo not given), the cell number change is -24.1%. Further, the AC50 under setting [2] was 29.1 µM [falling, single point].
For `COc1ccc(OCC(=O)Nc2cc(-c3nn(C)c(=O)c4ccccc34)ccc2OC)cc1`, the cell number change was -46.2%. The AC50 under setting [1] is 18.4 µM [falling, single point]. In addition, under setting [2], the AC50 was 23.1 µM [falling, single point].
Take `Cc1c(OCC(=O)NCCCN2CCCC2=O)ccc2c3c(c(=O)oc12)CCCC3`: the AC50 under setting [2] is 5.17 µM [falling, partial curve].
With `CN(C(=O)c1cccc(N2C(=O)C3CC=CCC3C2=O)c1)C1CCCCC1` (stereo not given), the cell number change was -1.12%.
For `Cc1ccccc1OCCSc1nc(N(C)C)nc(N(C)C)n1`, the cell number change worked out at 72.7%. In addition, the AC50 under setting [1] was 20.6 µM [rising, single point]. Under setting [2], the concentration at half-maximal activity (AC50) was 5.8 µM [rising, partial curve].
As for `COc1cccc(CNc2ncc(Br)cc2Br)c1O`, the cell number change was -37.7%. In addition, the AC50 under setting [1] was 10.3 µM [falling, partial curve, poor fit].
With `COc1ccc(C(=O)c2coc3ccc(OC(C)=O)cc23)cc1`, the cell number change amounted to 18.1%. Moreover, the AC50 under setting [2] was 32.6 µM [rising, single point].
In the case of `O=[N+]([O-])c1cccc(N/N=C/c2ccc(N3CCOCC3)cc2)c1`, the cell number change is -23%. Besides, the AC50 under setting [2] is 29.1 µM [falling, single point].
As to `COc1ccc(CNCc2cc(Cl)ccc2O)cc1`, the cell number change was 20.9%. The AC50 under setting [2] is 2.91 µM [rising, partial curve].
`COC(C[C@@H](O)C[C@H](O)[C@@H](C)OCc1ccccc1)OC`: the AC50 under setting [2] is 29.1 µM [falling, single point].
Take `CCOC(=O)N1CCN(C(=O)COC(=O)c2cccc(C)c2[N+](=O)[O-])CC1`: the cell number change was -7.38%. Besides, the concentration at half-maximal activity (AC50) under setting [2] is 32.6 µM [falling, single point].
For `Cc1occc1-c1nnc(SCC(=O)N(C)C)o1`, the cell number change was 93.5%. Also, the half-maximal activity concentration (AC50) under setting [1] is 25.9 µM [rising, partial curve, poor fit]. Moreover, under setting [2], the concentration at half-maximal activity (AC50) is 29.1 µM [falling, single point].
As to `CCc1cc(=O)[nH]c(SCc2ccc(C)cc2)n1`, the cell number change is -99.4%. For the same compound, under setting [1], the AC50 is 25.9 µM [falling, partial curve]. Besides, under setting [2], the AC50 was 4.11 µM [falling, partial curve].
In the case of `CCCCOc1ccccc1C1NC(=O)CCC1[N+](=O)[O-]` (stereo not given), the cell number change came out at 17.5%. Besides, the AC50 under setting [2] was 8.2 µM [rising, partial curve].
In the case of `COCCCNC(=O)CCCN1C(=O)c2cccnc2Sc2ccccc21`, the cell number change is -14.9%. In addition, the AC50 under setting [2] is 6.51 µM [rising, single point].
As to `CCNC(=S)/N=C(/Nc1ccccc1)Nc1nc(C)cc(C)n1`, the cell number change is -13.1%. Also, the concentration at half-maximal activity (AC50) under setting [2] is 1.64 µM [rising, partial curve, poor fit].
Take `C=CCN1C(=O)OC2(CCCCC2)C1(C)O` (stereo not given): the cell number change is -29%. Further, under setting [2], the AC50 was 3.66 µM [falling, partial curve].
Take `O=C(Nc1ccc(CN2CCOCC2)cc1)c1ccc(-c2ccc(Br)cc2)o1`: the cell number change was -13.9%. Moreover, the concentration at half-maximal activity (AC50) under setting [2] is 0.58 µM [rising, single point].
Take `COc1ccc(NC(=S)Nc2ccccn2)c(OC)c1`: the AC50 under setting [2] was 2.59 µM [rising, partial curve].
For `Cc1ccc(S(=O)(=O)Oc2ccc(/C=N/NC(=O)c3nn(C)cc3[N+](=O)[O-])cc2)cc1`, the cell number change is -18.3%. For the same compound, the concentration at half-maximal activity (AC50) under setting [1] is 0.731 µM [falling, partial curve, poor fit]. Under setting [2], the AC50 was 0.731 µM [falling, single point].
